Binding data for four molecules are collected here from paper PMC4117460.

Sequences of proteins named here, by UniProt entry; tags and fusion partners are left off.
UniProt Q3TKT4: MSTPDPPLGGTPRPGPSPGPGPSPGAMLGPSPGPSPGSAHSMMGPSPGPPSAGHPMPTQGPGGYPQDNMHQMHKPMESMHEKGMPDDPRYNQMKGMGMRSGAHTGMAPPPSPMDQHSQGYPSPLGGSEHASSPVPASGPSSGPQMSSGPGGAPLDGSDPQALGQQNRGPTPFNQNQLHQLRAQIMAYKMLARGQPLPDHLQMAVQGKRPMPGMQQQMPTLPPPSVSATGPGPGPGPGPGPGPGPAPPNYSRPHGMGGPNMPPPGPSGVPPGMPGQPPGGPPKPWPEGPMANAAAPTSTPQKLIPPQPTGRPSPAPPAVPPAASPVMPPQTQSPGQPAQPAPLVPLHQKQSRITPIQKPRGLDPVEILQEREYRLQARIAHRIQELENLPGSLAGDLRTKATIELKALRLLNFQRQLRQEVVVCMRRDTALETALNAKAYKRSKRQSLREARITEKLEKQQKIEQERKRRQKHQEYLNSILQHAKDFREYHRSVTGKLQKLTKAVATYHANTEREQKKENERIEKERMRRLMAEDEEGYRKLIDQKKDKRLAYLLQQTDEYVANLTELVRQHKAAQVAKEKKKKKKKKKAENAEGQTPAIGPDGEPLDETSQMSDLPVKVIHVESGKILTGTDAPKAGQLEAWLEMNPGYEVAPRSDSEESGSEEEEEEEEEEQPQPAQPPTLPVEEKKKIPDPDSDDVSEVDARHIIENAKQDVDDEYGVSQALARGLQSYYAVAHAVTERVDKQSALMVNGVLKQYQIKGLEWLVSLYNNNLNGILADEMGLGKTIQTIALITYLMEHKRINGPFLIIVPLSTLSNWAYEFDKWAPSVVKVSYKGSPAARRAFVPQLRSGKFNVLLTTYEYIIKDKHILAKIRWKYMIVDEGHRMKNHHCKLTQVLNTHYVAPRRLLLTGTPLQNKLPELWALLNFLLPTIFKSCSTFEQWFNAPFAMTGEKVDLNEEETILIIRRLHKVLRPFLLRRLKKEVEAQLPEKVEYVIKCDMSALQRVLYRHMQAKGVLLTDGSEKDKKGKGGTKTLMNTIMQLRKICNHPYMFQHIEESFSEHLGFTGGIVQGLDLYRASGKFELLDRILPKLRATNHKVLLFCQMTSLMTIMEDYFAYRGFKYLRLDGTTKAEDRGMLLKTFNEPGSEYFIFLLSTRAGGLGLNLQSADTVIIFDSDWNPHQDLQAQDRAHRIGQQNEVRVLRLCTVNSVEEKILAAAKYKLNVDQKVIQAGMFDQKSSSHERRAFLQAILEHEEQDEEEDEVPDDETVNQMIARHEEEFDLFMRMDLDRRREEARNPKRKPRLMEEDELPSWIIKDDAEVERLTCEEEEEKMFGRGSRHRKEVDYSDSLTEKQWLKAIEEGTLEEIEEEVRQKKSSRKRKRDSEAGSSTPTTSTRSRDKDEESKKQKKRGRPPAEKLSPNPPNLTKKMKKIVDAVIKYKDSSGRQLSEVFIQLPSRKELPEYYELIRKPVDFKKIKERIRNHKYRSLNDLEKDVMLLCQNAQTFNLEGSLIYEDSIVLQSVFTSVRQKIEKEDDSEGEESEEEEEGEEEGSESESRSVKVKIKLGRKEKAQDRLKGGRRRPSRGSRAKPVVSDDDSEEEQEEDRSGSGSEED

Read-outs that look alike come from different tables or passages of the source. These are yes or no findings as the source states them, for the method shown. Binding seen in cells or lysates may run through a third protein. Some entries that bind do so weakly or less than the wild type. For some assays here: Where a sequence is shown, tags or fusion partners need not be part of it.

One experiment addresses FLAG-tagged Brg1 (UniProt Q3TKT4). The experiment in a line: co-IP; coimmunoprecipitation and immunoblot of 293T cells expressing HA-tagged and FLAG-tagged proteins; which tag was precipitated is not told. For orientation: In western blotting, separated proteins are transferred to a membrane and probed.
The target of experiment [1] is T1, FLAG-tagged Nkx2.1 (UniProt P50220).
T1 sequence: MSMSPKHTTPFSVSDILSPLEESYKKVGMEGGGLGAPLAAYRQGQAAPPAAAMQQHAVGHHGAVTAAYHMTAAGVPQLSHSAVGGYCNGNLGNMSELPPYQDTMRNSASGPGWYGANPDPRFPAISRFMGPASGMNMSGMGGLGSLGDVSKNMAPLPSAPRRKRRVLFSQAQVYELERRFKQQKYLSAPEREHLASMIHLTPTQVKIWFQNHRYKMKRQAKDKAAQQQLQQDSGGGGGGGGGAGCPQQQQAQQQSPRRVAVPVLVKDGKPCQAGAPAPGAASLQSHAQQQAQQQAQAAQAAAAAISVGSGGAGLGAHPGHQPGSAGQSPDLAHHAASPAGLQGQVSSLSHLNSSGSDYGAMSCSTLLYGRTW
Described as above.

Experiment [2] has as its target T2, endogenous Nkx2.1 (mouse (endogenous in E17.5 lung tissue)) (UniProt P50220).
T2 sequence: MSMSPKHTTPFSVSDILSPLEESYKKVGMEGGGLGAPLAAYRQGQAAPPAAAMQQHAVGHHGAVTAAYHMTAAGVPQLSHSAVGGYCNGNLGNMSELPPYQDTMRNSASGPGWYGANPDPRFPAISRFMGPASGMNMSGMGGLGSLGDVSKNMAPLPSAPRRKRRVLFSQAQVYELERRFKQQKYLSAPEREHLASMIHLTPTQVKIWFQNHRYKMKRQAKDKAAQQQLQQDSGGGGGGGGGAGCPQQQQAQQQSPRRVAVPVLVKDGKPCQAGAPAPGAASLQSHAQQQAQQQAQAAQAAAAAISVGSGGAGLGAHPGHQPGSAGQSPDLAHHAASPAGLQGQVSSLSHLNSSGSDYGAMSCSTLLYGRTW
The experiment in a line: co-IP; CoIP of endogenous Nkx2.1, Brg1 and Jmjd3 in WT and Jmjd3-deficient mouse lung tissues at E17.5.

Experiment [3] concerns the target T1, FLAG-tagged Nkx2.1. The experiment in a line: co-IP; coimmunoprecipitation and immunoblot of 293T cells expressing HA-tagged and FLAG-tagged proteins; which tag was precipitated is not told. This is another data set of the same source.

With “HA-tagged Jmjd3 (Jumonji domain containing-3) (from UniProt O15054-1 1-1682) (enzyme)”, the binding result in the experiment with FLAG-tagged Brg1 and with FLAG-tagged Nkx2.1 [1] was “binds” in each case.

As for “HA-tagged Jmjd3C (1201-1682 aa) (from UniProt O15054-1 1201-1682) (domain or fragment)”, the binding result with FLAG-tagged Brg1 is on record as “binds”.

Consider “endogenous Brg1 (from UniProt Q3TKT4 1-1613) (enzyme)”, for which, in experiment [2], the binding result is “binds”.

B1: HA-tagged Jmjd3N (1-450 aa) (domain or fragment, UniProt O15054-1 1-450)
chain: MHRAVDPPGARAAREAFALGGLSCAGAWSSCPPHPPPRSAWLPGGRCSASIGQPPLPAPLPPSHGSSSGHPSKPYYAPGAPTPRPLHGKLESLHGCVQALLREPAQPGLWEQLGQLYESEHDSEEATRCYHSALRYGGSFAELGPRIGRLQQAQLWNFHTGSCQHRAKVLPPLEQVWNLLHLEHKRNYGAKRGGPPVKRAAEPPVVQPVPPAALSGPSGEEGLSPGGKRRRGCNSEQTGLPPGLPLPPPPLPPPPPPPPPPPPPLPGLATSPPFQLTKPGLWSTLHGDAWGPERKGSAPPERQEQRHSLPHPYPYPAPAYTAHPPGHRLVPAAPPGPGPRPPGAESHGCLPATRPPGSDLRESRVQRSRMDSSVSPAATTACVPYAPSRPPGLPGTTTSSSSSSSSNTGLRGVEPNPGIPGADHYQTPALEVSHHGRLGPSAHSSRKPFL
For the molecule B1, in the experiment with FLAG-tagged Nkx2.1 [3], the binding result is recorded as “binds”.
